# From PubChem BioAssay AID588499 (NMMLSC, 2011)
# In all, about 360,000 compounds went through this assay and about 610 (0.17%) were called active. Inconclusive means that the source gave no clear call. Such entries were picked first, then a sample of the others. Cut-off read from the data, not from the text of the source: active = inhibition above about 30%; inconclusive = no clear call, values can overlap the other calls; inactive = below that.
# Tested on: Botulinum neurotoxin type A light chain protease (Clostridium botulinum A str. ATCC 3502)
# Assay: blockers of BoNT/A LC substrate cleavage – biochemical, flow cytometry, MLPCN library, primary screen (AID 588499); note: plate controls were buffer without enzyme for full effect and enzyme alone for no effect
# Settings: multiplex microsphere protease substrate cleavage, at 10 µM, hits give high values
row,Compound,inhibition
1,Cc1ccc(NC(=O)CSc2nc(NS(=O)(=O)c3ccc(C)cc3)cc(=O)[nH]2)cc1,inconclusive: 3.2%
2,CC(=O)N(c1ccccc1C)S(=O)(=O)c1ccc(Cl)cc1,inactive: 0.1%
3,O=C(C1COc2ccccc2O1)N1CCCC1 (centres undefined),inconclusive: -1.1%
4,CO/N=C/c1ccc(N2CCN(C(=O)c3cccc(Cl)c3)CC2)c([N+](=O)[O-])c1,inconclusive: -0.6%
5,CC(C)(C)c1ccc(-c2nc(C#N)c(NCCCn3ccnc3)o2)cc1,inconclusive: 16%
6,COc1ccc2[nH]c(=O)c(C(c3nnnn3CC3CCCO3)N3CCc4ccccc4C3)cc2c1 (centres undefined),inconclusive: 1.7%
7,Cc1ccnc(NC(=O)c2ccc(Cl)c(NC(=O)c3ccccc3C)c2)c1,inconclusive: 3.1%
8,Cc1cc(NC(=O)/C=C\C(=O)O)c([N+](=O)[O-])cc1C,inconclusive: 0.8%
9,CCCn1c(SCC(=O)N2CCCC2)nc2c1c(=O)n(C)c(=O)n2C,inconclusive: 0.2%
10,COc1ccc(CC(=O)OCC(=O)c2c[nH]c3ccccc23)cc1,active: 52.7%
11,CCN(CC)CCC(c1cc(OC)c(OC)c(OC)c1)c1c(OC)cc(OC)c2c(C)cc(=O)oc12 (centres undefined),inactive: 0.5%
12,CCCCCOc1ccc(/C(C)=N/NC2=NCCN2)cc1,inconclusive: -5.3%
13,CC(C)c1ccc(CN(C(=O)c2cc3ccccc3oc2=O)C2CCS(=O)(=O)C2)cc1 (centres undefined),inconclusive: 7.2%
14,Cc1nnc(NC(=O)CCC(=O)NCc2cccs2)s1,inconclusive: 3.8%
15,CCc1ccc(-n2cc(-c3ccc([N+](=O)[O-])cc3)[nH]c2=S)cc1,inactive: 0.6%
16,Cc1cc(C)c(NS(=O)(=O)c2ccc(Cl)c(C(=O)O)c2)c(C)c1,inconclusive: 1.3%
17,O=C(COC(=O)c1cnc(Cl)c(Cl)c1)NCCC1=CCCCC1,inactive: -0.5%
18,COc1ccccc1CNc1nc(Nc2cccc(-c3cnco3)c2)c2sccc2n1,inactive: -0.8%
19,C=CCOc1c(CNc2ccc(C(=O)O)cc2)cccc1OC,inactive: 0.4%
20,Cc1ccc(N2C(N)=C(C#N)C(c3cccs3)C3=C2CC(C)(C)CC3=O)cc1 (centres undefined),inconclusive: -2.3%
21,CCn1c(Cc2ccccc2)nnc1SCC(=O)Nc1ccc2c(c1)OCCO2,inconclusive: 12.9%
22,O=C(Oc1coc(CSc2nnc(NC(=O)C3CC3)s2)cc1=O)c1ccccc1,active: 62.8%
23,Cc1ccc(-c2cc(C(=O)Nc3c(C)n(C)n(-c4ccccc4)c3=O)[nH]n2)c(O)c1,inconclusive: -0.7%
24,CCOC(=O)C(=O)N/N=C/c1ccc(F)cc1,inconclusive: 14.7%

# 3 entries out of the list, sorted by molar mass, ascending:
row,Compound,inhibition
20,Cc1ccc(N2C(N)=C(C#N)C(c3cccs3)C3=C2CC(C)(C)CC3=O)cc1 (centres undefined),inconclusive: -2.3%
4,CO/N=C/c1ccc(N2CCN(C(=O)c3cccc(Cl)c3)CC2)c([N+](=O)[O-])c1,inconclusive: -0.6%
1,Cc1ccc(NC(=O)CSc2nc(NS(=O)(=O)c3ccc(C)cc3)cc(=O)[nH]2)cc1,inconclusive: 3.2%
